Assay results taken from paper doi:10.1101/636324.
Like-named read-outs stand apart in the source and are kept apart here. No constants are given. Whether binding was seen depends on the method and setting. In cells and extracts the contact can be indirect. These calls come from enrichment with a bait or labelling near it, and not all partners need be listed. For part of these data: No binding means not detected with the bait. Tags and fused reporters may be left off the sequences shown.

Chains of the proteins cited; added tags and fusions are not shown. Residues count along the entry.
UniProt Q9LX66, residues 25-830: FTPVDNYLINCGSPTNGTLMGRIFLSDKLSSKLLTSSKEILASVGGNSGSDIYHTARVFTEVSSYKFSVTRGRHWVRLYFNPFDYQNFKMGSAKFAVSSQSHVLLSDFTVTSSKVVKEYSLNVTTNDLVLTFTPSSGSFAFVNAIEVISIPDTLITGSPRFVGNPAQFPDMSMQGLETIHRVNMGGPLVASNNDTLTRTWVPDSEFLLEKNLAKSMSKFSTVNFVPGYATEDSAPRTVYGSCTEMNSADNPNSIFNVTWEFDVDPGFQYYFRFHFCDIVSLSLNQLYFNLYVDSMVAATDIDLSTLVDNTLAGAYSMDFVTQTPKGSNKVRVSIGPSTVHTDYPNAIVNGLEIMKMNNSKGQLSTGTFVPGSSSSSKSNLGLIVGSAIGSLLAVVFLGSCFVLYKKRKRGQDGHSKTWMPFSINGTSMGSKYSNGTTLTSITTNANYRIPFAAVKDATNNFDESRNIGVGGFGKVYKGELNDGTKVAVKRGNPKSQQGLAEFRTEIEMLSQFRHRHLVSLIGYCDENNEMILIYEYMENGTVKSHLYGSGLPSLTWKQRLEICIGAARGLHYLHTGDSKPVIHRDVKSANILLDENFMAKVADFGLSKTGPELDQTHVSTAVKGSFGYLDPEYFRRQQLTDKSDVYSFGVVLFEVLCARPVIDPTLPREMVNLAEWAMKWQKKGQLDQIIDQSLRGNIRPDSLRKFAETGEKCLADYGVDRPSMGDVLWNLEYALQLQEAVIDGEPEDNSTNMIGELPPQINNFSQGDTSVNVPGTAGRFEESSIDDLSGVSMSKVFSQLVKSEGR
UniProt Q8W4L3: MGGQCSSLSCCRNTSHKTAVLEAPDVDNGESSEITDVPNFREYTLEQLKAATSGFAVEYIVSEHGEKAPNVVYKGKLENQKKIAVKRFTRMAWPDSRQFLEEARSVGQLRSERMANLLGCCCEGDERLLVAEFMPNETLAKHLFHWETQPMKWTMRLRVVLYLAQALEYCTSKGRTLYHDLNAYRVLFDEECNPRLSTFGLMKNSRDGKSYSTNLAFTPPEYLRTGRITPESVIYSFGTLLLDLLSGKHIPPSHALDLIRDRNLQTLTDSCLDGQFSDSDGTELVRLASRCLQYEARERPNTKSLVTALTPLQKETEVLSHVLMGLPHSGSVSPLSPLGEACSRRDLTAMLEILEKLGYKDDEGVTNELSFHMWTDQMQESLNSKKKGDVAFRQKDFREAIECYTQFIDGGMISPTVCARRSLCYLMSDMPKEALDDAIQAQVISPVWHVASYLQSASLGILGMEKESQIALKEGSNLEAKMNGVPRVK
UniProt Q8S307: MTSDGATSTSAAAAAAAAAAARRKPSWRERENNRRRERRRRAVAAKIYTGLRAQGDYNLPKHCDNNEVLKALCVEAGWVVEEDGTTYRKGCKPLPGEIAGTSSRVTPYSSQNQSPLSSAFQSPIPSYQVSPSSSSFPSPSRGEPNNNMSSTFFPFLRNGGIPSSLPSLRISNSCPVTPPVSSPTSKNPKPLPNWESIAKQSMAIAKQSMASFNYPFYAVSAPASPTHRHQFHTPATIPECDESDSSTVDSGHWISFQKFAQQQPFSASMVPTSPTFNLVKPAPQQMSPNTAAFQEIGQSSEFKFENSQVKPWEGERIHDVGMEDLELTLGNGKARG

Legend:
Experiment in all cases: proximity labelling
[1] = molecular target: T1, BIN2-YFP-TbID (Arabidopsis) (UniProt Q39011)
T1 sequence: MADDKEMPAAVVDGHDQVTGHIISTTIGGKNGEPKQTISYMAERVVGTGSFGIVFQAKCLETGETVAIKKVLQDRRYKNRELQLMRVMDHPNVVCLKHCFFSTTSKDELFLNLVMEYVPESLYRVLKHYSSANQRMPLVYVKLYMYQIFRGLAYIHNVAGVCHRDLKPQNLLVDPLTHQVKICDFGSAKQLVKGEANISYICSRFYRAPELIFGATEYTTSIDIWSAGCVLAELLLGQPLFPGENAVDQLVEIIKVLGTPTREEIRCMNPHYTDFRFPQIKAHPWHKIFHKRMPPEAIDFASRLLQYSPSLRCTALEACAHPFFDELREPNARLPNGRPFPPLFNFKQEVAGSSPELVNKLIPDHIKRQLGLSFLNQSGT

[2] = molecular target: T2, PP2AB’ε (ATB’-ε)-YFP-TbID (Arabidopsis) (UniProt Q9SV41)
T2 sequence: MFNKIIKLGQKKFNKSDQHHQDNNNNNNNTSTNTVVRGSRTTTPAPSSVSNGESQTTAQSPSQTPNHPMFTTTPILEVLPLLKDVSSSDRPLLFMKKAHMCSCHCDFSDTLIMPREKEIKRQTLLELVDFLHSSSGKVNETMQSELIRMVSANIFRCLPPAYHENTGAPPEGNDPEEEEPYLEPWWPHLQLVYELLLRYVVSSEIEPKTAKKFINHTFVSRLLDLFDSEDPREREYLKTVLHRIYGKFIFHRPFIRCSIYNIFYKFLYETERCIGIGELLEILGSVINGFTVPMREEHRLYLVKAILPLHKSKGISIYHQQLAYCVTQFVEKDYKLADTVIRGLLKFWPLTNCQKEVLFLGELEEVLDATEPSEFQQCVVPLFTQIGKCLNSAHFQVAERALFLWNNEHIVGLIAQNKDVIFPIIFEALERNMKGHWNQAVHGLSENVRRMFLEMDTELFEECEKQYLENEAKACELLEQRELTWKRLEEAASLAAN

[3] = molecular target: T3, PP2AB’α (ATB’-α)-YFP-TbID (Arabidopsis) (UniProt O04375)
T3 sequence: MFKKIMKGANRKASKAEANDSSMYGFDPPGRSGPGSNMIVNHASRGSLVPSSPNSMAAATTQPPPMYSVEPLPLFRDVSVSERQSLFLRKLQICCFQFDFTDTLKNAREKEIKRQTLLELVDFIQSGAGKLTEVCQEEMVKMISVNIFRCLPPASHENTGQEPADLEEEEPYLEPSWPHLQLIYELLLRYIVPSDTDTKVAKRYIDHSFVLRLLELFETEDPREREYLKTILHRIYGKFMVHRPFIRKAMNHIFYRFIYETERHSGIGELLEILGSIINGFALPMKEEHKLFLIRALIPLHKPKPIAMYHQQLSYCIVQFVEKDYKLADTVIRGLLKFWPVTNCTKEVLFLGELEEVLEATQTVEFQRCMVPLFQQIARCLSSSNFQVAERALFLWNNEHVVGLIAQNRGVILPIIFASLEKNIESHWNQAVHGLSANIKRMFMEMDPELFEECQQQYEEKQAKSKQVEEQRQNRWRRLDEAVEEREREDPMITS

[4] = molecular target: T1, BIN2-YFP-TbID (Arabidopsis); remark: listed apart in the source

## receptor kinase HERK1 (from UniProt Q9LX66 25-830)
[1]
  binding: binds

## BSK3 (from UniProt Q8W4L3 1-489)
[1]
  binding: binds

## BZR1 fused with 4xMyc-6His tag (from UniProt Q8S307 1-336)
[2]
  binding: no binding
[3]
  binding: binds

B1: NONPHOTOTROPIC HYPOCOTYL3 (protein, UniProt Q9FMF5 1-746)
chain: MMWESESDGGVGVGGGGGREYGDGVLSSNKHGGVKTDGFELRGQSWFVATDIPSDLLVKIGDMNFHLHKYPLLSRSGKMNRLIYESRDPDPTILILDDLPGGPEAFELASKFCYGVPVDLTATNISGLRCAAEYLEMTEDLEEGNLIFKTEAFLSYVVLSSWRDSILVLKSCEKLSPWAENLQIVRRCSESIAWKACSNPKGIRWAYTGKAPSPSTTNFAGSSPRWNESKDSSFYCSPSRNTNSQPVPPDWWFEDVSILRIDHFVRVITAIKVKGMRFELLGAVIMHYAGKWLPGLIKEGGVAIAPAMSSAIGGGLGLGGDEMSISCGSNSSGGSSGPDWKGGLHMVLSAGKTNGHQDSVACLAGLGISPKDQRMIVESLISIIPPQKDSVTCSFLLRLLRAANMLKVAPALITELEKRVGMQFEQATLQDLLIPGYNNKGETMYDVDLVQRLLEHFLVQEQTEGSSPSRMSPSPSQSMYADIPRGNNNNGGGGGGNNQNAKMRVARLVDSYLTEVARDRNLPLTKFQVLAEALPESARTCDDGLYRAIDSYLKAHPTLSEHERKRLCRVMDCQKLSMDACMHAAQNERLPLRVVVQVLFSEQVKISNALANTSLKESTTLGEAMGTYQPMIPNRKTLIEATPQSFQEGWAAAKKDINTLKFELETVKTKYVELQNEMEVMQRQFEKTGKVKNTPSSSAWTSGWKKLSKLTKMSGQESHDISSGGEQAGVDHPPPRKPRRWRNSIS
[4]
  binding: binds

B2: MLP34 (protein, UniProt Q9SSK7 1-316)
chain: MAKTEAPSLVGKLETEVEIKASAGQFHHMFAGKPHHVSKASPGNIQSCDLHEGDWGTVGSIVFWNYVHDGEAKVAKERIEAVEPEKNLITFRVIEGDLMKEYKSFLITIQVTPKHGGPGSIVHWHLEYEKISDEVAHPETLLQFCVEVSQEIDEHLLSEEEEVKTTETLETEVEIKASAEKFHHMFAGKPHHVSKATPGNIQSCDLHEGDWGTVGSIVFWNYVHDGEAKVAKERIEAVDPEKNLITFRVIEGDLMKEYKSFVITIQVTPKHGGSGSVVHWHFEYEKINEEVAHPETLLQFAVEVSKEIDEHLLAEE
[4]
  binding: no binding
